Counter-ions that a name gives are not always drawn. Some of the results follow. Many values rest on one well or one pass, so single values are uncertain.
Columns and labels:
A2780 = assay: cell growth inhibition ratio vs untreated control (CCK8); higher = stronger inhibition of cell viability; conditions: 10 µM; 48 h
Method: (§1)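 Natural product library (Topscience) screened at 10 µM final concentration for 48 h on ovarian cancer A2780 cells and patient-derived ovarian cancer cells (PDC) in 96-well plates; viability read by CCK8 and reported as inhibition ratio (%) relative to untreated control. Single-dose primary screen.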

[1] = test system: patient-derived ovarian cancer cells (PDC); assay: as above; conditions: 10 µM; 48 h
Method: as §1

SMILES	cell growth inhibition ratio (A2780)	cell growth inhibition ratio [1]
O=c1cc(-c2ccc(O)cc2)oc2cc(O)cc(O)c12 [Apigenin]	20.9%	-8.32%
CC1(C)CC[C@]2(C(=O)O)CCC3=C([C@@H](CCl)C[C@@H]4[C@@]5(C)C[C@H](O)[C@H](O)[C@@](C)(C(=O)O)[C@@H]5CC[C@@]34C)[C@@H]2C1 [Senegenin]	19.6%	0.279%
COc1cc(C2Oc3cc([C@H]4Oc5cc(O)cc(O)c5C(=O)[C@@H]4O)ccc3OC2CO)ccc1O (stereo not given in full) [Silibinin]	7.5%	-2.63%
CC1=CCC[C@H](C)C(=O)C[C@@H](C(C)C)C(=O)C1 [Curdione]	3.18%	13.9%
COc1ccc2cc1Oc1ccc(cc1)C[C@H]1c3c(cc4c(c3Oc3cc5c(cc3OC)CCN(C)[C@@H]5C2)OCO4)CCN1C [Cepharanthine]	89.3%	37%
O=C(O)c1cc(=O)[nH]c(=O)[nH]1 [Orotic acid]	5.83%	-5.72%
COc1cc(O)cc(O)c1C(=O)/C=C/c1ccccc1 [Cardamoni]	60.9%	30.2%
CC1(C)CCC[C@]2(C)[C@H]3CC(=O)O[C@]3(C)CC[C@@H]12 [Sclareolide]	2.75%	-13.6%
NC(=O)NCCC[C@H](N)C(=O)O [Citrulline]	5.98%	-7.92%
O=C(O)[C@H]1O[C@@H](Oc2cc3oc(-c4ccc(O)cc4)cc(=O)c3c(O)c2O)[C@H](O)[C@@H](O)[C@@H]1O [Scutellarin]	5.2%	-3.09%
COC(=O)c1cc(OC)c(O)c(OC)c1 [Methyl syringate]	11.7%	1.93%
COc1cc(-c2oc3cc(O)cc(O)c3c(=O)c2O)ccc1O [Isorhamnetin]	16.9%	1.45%
OC[C@@H](O)[C@@H](O[C@H]1O[C@H](CO)[C@@H](O)[C@H](O)[C@H]1O)[C@H](O)[C@@H](O)CO [Maltitol]	-6.44%	7.4%
CC[C@H]1OC(=O)[C@H](C)[C@@H](O[C@H]2C[C@@](C)(OC)[C@@H](O)[C@H](C)O2)[C@H](C)[C@@H](O[C@@H]2O[C@H](C)C[C@H](N(C)C)[C@H]2O)[C@](C)(O)C[C@@H](C)C(=O)[C@H](C)[C@@H](O)[C@]1(C)O [Erythromycin]	3.15%	4.22%
CNc1ncnc2c1ncn2[C@@H]1O[C@H](CO)[C@@H](O)[C@H]1O [N6-methyladenosine (m6A)]	19.4%	-18.7%
c1ccc2c(Cc3c[nH]c4ccccc34)c[nH]c2c1 [3,3'-Diindolylmethane]	-6.17%	7.52%
CC(C)=CCC[C@](C)(O)[C@H]1CC[C@]2(C)[C@@H]1[C@H](O)C[C@@H]1[C@@]3(C)CC[C@H](O)C(C)(C)[C@@H]3[C@@H](O)C[C@]12C [Protopanaxatriol]	14.8%	-0.144%
C=C(C)[C@@H]1CC[C@]2(C(=O)O)CC[C@]3(C)[C@H](CC[C@@H]4[C@@]5(C)CC[C@H](O[C@@H]6OC[C@H](O)[C@H](O)[C@H]6O[C@@H]6O[C@@H](C)[C@H](O)[C@@H](O)[C@H]6O)[C@@](C)(CO)[C@@H]5CC[C@]43C)[C@@H]12 [Anemoside A3]	-3.63%	9.66%
CCCN1C[C@H](C)[C@@H](O)[C@](C)(O)[C@@H](CC)OC(=O)[C@H](C)[C@@H](O[C@H]2C[C@@](C)(OC)[C@@H](O)[C@H](C)O2)[C@H](C)[C@@H](O[C@@H]2O[C@H](C)C[C@H](N(C)C)[C@H]2O)[C@](C)(O)C[C@H]1C [Gamithromycin]	1.22%	2.09%
COC(=O)c1cc(OC)c(OC)c(OC)c1 [Methyl EudesMate]	-0.825%	5.81%

Entries listed so far with an aryl methoxy group, in the order listed:
SMILES	cell growth inhibition ratio (A2780)	cell growth inhibition ratio [1]
COc1cc(C2Oc3cc([C@H]4Oc5cc(O)cc(O)c5C(=O)[C@@H]4O)ccc3OC2CO)ccc1O (stereo not given in full) [Silibinin]	7.5%	-2.63%
COc1ccc2cc1Oc1ccc(cc1)C[C@H]1c3c(cc4c(c3Oc3cc5c(cc3OC)CCN(C)[C@@H]5C2)OCO4)CCN1C [Cepharanthine]	89.3%	37%
COc1cc(O)cc(O)c1C(=O)/C=C/c1ccccc1 [Cardamoni]	60.9%	30.2%
COC(=O)c1cc(OC)c(O)c(OC)c1 [Methyl syringate]	11.7%	1.93%
COc1cc(-c2oc3cc(O)cc(O)c3c(=O)c2O)ccc1O [Isorhamnetin]	16.9%	1.45%
COC(=O)c1cc(OC)c(OC)c(OC)c1 [Methyl EudesMate]	-0.825%	5.81%

The listing continues.

SMILES	cell growth inhibition ratio (A2780)	cell growth inhibition ratio [1]
C[C@H](CCC(=O)O)[C@H]1CC[C@H]2[C@@H]3C(=O)C[C@@H]4CC(=O)CC[C@]4(C)[C@H]3CC(=O)[C@]12C [Dehydrocholic acid]	10%	-7.82%
COc1cc(-c2oc3cc(O)cc(O)c3c(=O)c2O[C@@H]2O[C@H](CO[C@@H]3O[C@@H](C)[C@H](O)[C@@H](O)[C@H]3O)[C@@H](O)[C@H](O)[C@H]2O[C@@H]2O[C@@H](C)[C@H](O)[C@@H](O)[C@H]2O)ccc1O [Typhaneoside]	16.9%	2.97%
CC(=O)OCC(=O)[C@@]1(O)CC[C@H]2[C@@H]3CCC4=CC(=O)CC[C@]4(C)[C@H]3C(=O)C[C@@]21C [Cortisone acetate]	12%	3.66%
CCC(C)(C)C(=O)O[C@H]1C[C@@H](C)C=C2C=C[C@H](C)[C@H](CC[C@@H]3C[C@@H](O)CC(=O)O3)[C@H]21 [Simvastatin]	58.9%	-14.7%
O=C1O[C@H]([C@@H](O)CO)C(O)=C1OP(=O)(O)O [Sodium L-ascorbyl-2-phosphate]	-2.17%	5.87%
CC(=O)c1ccc(O)c(C(=O)O)c1 [5-Acetylsalicylic acid]	14%	-12.7%
O=C1C[C@@H](c2ccc(O[C@@H]3O[C@H](CO)[C@@H](O)[C@H](O)[C@H]3O)cc2)Oc2cc(O)ccc21 [Liquiritin]	-5.2%	-1.87%
CC(=O)Oc1c(C)c(C)c2c(c1C)CCC(C)(CCC[C@H](C)CCC[C@H](C)CCCC(C)C)O2 (stereo not given in full) [Vitamin E Acetate]	11.3%	8.31%
COC(=O)Nc1nc2cc(C(=O)c3cccs3)ccc2[nH]1 [Nocodazole]	84.8%	45.9%
Oc1ccc2c(c1)OCO2 [Sesamol]	10.6%	5.25%
COC(=O)c1cc(O)c(O)c(O)c1 [Methyl gallate]	5.5%	5.64%
COC(=O)C1=CO[C@@H](O[C@@H]2O[C@H](CO)[C@@H](O)[C@H](O)[C@H]2O)[C@H]2[C@@H]1[C@H](O)C[C@]2(C)O	9.42%	-21%
Oc1cc(O)c2c(c1)O[C@H](c1ccc(O)c(O)c1)[C@@H](O)C2 [Cianidanol]	8.03%	2.54%
O=C1C(c2[nH]c3ccccc3c2O)=Nc2ccccc21 [Indigo]	3.61%	19.2%
O=C(O[C@@H]1Cc2c(O)cc(O)cc2O[C@@H]1c1ccc(O)c(O)c1)c1cc(O)c(O)c(O)c1 [(-)-Epicatechin gallate]	3.42%	-5.39%
Cc1ncc(C[n+]2csc(CCO)c2C)c(N)n1 [Thiamine hydrochloride]	-6%	1.99%
CC(=O)Oc1cc(C)c(OC(C)=O)c2ccccc12 [Menadiol Diacetate]	10.7%	7.5%
C[C@]12CC[C@@H]3c4ccc(O)cc4CC[C@H]3[C@@H]1CCC2=O [Aquacrine]	8.07%	8.59%
COc1cc2c(c(OC)c1OC)-c1c(cc3c(c1OC)OCO3)CC(C)C(C)C2 (stereo not given) [Schizandrin B]	3.76%	0.141%
COC(=O)C1=CO[C@@H](O[C@@H]2O[C@H](CO)[C@@H](O)[C@H](O)[C@H]2O)[C@@H]2C(CO)=CC[C@H]12 [Geniposide]	8.13%	2.35%
